No constants are given. Whether binding was seen depends on the method and setting. Some results given as binding are weak or reduced against the parent protein; the word gives no strength. Sequences can lack the tags named with a protein.

Protein sequences, listed by entry. Tags and fused reporters are not part of them.
UniProt P04419: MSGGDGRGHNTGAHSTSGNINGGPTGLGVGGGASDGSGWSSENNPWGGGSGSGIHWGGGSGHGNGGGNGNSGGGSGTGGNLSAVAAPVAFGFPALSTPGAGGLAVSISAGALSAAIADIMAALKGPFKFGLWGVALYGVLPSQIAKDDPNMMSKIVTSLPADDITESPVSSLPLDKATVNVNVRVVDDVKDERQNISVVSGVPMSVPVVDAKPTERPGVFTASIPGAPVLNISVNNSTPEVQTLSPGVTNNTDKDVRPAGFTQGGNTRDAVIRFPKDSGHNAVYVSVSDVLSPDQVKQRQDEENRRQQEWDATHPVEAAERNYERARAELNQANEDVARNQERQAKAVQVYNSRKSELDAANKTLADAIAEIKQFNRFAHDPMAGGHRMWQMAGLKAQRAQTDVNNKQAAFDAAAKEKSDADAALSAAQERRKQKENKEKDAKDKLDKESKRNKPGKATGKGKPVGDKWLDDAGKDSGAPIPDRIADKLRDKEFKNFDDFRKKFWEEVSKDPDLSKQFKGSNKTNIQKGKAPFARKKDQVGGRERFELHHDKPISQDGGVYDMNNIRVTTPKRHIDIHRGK

In this test the target is T1, Immunity protein Im2, wild type, C-terminal His6-tag (E. coli (the paper calls E. coli the native host)) (UniProt P04482).
T1 sequence: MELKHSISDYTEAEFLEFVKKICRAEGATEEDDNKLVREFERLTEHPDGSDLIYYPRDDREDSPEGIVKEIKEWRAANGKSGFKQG
The experiment in a line: co-purification on Ni-NTA; ColE co-expressed with Im (C-terminal His6-tag) in E. coli BL21 (DE3); supernatant bound to Ni-NTA beads 1 hr at 4 °C, washed with 20 mM imidazole, eluted with 500 mM imidazole; 50 mM Tris pH 8.6, 50 mM NaCl, 2 mM MgCl2.

As for “Colicin E2 (ColE2), wild type (from UniProt P04419 1-581)”, the binding result was “binds”.

The record behind these values is article PMC10153392.
